The results in this text go back to article PMC10189953.

Substitutions are numbered along the chain they refer to. These are yes or no findings as the source states them, for the method shown. Some results given as binding are weak or reduced against the parent protein; the word gives no strength.

Assay [1] addresses T1, MUS81 (human, full-length, subunit of MUS81-EME1 and MUS81-EME2) (human) (UniProt Q96NY9).
T1 sequence: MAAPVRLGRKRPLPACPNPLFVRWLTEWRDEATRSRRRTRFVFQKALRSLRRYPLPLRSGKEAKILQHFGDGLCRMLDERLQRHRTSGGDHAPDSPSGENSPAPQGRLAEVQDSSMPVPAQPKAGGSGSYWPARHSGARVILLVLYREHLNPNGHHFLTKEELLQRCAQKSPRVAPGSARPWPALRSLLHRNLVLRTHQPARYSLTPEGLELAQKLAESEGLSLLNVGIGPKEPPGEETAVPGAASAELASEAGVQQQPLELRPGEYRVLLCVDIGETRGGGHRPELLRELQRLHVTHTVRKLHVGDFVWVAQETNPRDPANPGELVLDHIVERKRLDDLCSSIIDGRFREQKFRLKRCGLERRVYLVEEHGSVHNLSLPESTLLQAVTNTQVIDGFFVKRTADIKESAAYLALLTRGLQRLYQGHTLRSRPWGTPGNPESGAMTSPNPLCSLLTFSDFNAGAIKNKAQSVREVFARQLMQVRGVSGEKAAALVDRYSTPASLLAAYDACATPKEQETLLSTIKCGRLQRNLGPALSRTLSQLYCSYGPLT
Put plainly: co-purification by column chromatography; human MUS81 complexes from bacterial lysate carried through Q-sepharose, SP-sepharose, His-Select nickel affinity gel and heparin; final pools checked on SDS-PAGE.

Assay [2] addresses T2, Mus81 (S. cerevisiae, full-length, subunit of Mus81-Mms4) (S. cerevisiae) (UniProt Q04149).
T2 sequence: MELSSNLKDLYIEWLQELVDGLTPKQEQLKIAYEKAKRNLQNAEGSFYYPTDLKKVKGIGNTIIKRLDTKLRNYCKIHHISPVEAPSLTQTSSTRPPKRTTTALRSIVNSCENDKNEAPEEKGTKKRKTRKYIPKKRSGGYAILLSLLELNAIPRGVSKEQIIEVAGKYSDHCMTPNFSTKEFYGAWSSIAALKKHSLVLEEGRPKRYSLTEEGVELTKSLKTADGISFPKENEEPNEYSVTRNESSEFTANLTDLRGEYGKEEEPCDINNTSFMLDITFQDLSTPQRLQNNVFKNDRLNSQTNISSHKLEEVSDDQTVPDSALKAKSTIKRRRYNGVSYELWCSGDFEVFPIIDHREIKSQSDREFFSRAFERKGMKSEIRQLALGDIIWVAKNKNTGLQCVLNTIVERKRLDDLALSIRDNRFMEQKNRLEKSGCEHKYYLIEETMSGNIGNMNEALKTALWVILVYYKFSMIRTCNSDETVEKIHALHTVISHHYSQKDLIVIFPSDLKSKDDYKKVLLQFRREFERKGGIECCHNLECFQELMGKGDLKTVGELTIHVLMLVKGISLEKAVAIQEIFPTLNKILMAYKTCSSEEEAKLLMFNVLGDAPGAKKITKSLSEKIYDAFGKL
Briefly: co-purification by column chromatography; S. cerevisiae Mus81-Mms4 from bacterial lysate carried through Q-sepharose, SP-sepharose, His-Select nickel affinity gel, hydroxyapatite and MonoS; final pool checked on SDS-PAGE.

Assay [3] has as its target T3, MUS81(246-551) nuclease-dead mutant (D338A, D339A) (human) (UniProt Q96NY9).
T3 sequence: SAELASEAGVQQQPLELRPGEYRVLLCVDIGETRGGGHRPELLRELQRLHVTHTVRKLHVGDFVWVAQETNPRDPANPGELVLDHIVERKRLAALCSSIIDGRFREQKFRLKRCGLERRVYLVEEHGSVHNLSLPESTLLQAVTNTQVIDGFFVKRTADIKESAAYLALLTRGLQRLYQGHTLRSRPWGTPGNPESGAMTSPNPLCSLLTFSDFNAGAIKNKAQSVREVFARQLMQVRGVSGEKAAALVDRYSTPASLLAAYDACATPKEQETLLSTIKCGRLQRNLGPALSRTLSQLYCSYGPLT
Put plainly: co-purification by column chromatography; human MUS81 complexes from bacterial lysate carried through Q-sepharose, SP-sepharose, His-Select nickel affinity gel and heparin; final pools checked on SDS-PAGE.

Assay [4] deals with T4, MUS81(246-551), wild type, of the truncated complex MUS81(246-551)-EME1(178-570) (human) (UniProt Q96NY9).
T4 sequence: T3 sequence with A93D, A94D
The description is as above.

B1: EME1 (human, full-length, subunit of MUS81-EME1) (protein, UniProt Q96AY2 1-570)
chain: MALKKSSPSLDSGDSDSEELPTFAFLKKEPSSTKRRQPEREEKIVVVDISDCEASCPPAPELFSPPVPEIAETVTQTQPVRLLSSESEDEEEFIPLAQRLTCKFLTHKQLSPEDSSSPVKSVLDHQNNEGASCDWKKPFPKIPEVPLHDTPERSAADNKDLILDPCCQLPAYLSTCPGQSSSLAVTKTNSDILPPQKKTKPSQKVQGRGSHGCRQQRQARQKESTLRRQERKNAALVTRMKAQRPEECLKHIIVVLDPVLLQMEGGGQLLGALQTMECRCVIEAQAVPCSVTWRRRAGPSEDREDWVEEPTVLVLLRAEAFVSMIDNGKQGSLDSTMKGKETLQGFVTDITAKTAGKALSLVIVDQEKCFSAQNPPRRGKQGANKQTKKQQQRQPEASIGSMVSRVDAEEALVDLQLHTEAQAQIVQSWKELADFTCAFTKAVAEAPFKKLRDETTFSFCLESDWAGGVKVDLAGRGLALVWRRQIQQLNRVSLEMASAVVNAYPSPQLLVQAYQQCFSDKERQNLLADIQVRRGEGVTSTSRRIGPELSRRIYLQMTTLQPHLSLDSAD
As for B1, the binding entry in assay [1] is reported as “binds”.

B2: Mms4 (S. cerevisiae, full-length, subunit of Mus81-Mms4) (protein, UniProt P38257 1-691)
chain: MSQIVDFVEDKDSRNDASIQIIDGPSNVEIIALSESMDQDECKRAHVSSAEMIPSSPQRKSVSNDVENVDLNKSIELSAPFFQDISISKLDDFSTTVNSIIDSSLRNENNAKGNAKKLLDDLISDEWSADLESSGKKHNKSQYNLRDIAEKWGVQSLKNPEPIAVDCEYKTQGIGKTNSDISDSPKSQIGAADILFDFPLSPVKHENPTEEKHNSIANENSSPDNSLKPAGKQNHGEDGTSMAKRVYNKGEDEQEHLPKGKKRTIALSRTLINSTKLPDTVELNLSKFLDSSDSITTDVLSTPAKGSNIVRTGSQPIFSNANCFQEAKRSKTLTAEDPKCTKNTAREVSQLENYIAYGQYYTREDSKNKIRHLLKENKNAFKRVNQIYRDNIKARSQMIIEFSPSLLQLFKKGDSDLQQQLAPAVVQSSYNDSMPLLRFLRKCDSIYDFSNDFYYPCDPKIVEENVLILYYDAQEFFEQYTSQKKELYRKIRFFSKNGKHVILILSDINKLKRAIFQLENEKYKARVEQRLSGTEEALRPRSKKSSQVGKLGIKKFDLEQRLRFIDREWHVKIHTVNSHMEFINSLPNLVSLIGKQRMDPAIRYMKYAHLNVKSAQDSTETLKKTFHQIGRMPEMKANNVVSLYPSFQSLLEDIEKGRLQSDNEGKYLMTEAVEKRLYKLFTCTDPNDTIE
With B2, the binding result in assay [2] was “binds”.

B3: EME2 (human, full-length, subunit of MUS81-EME2) (protein, UniProt A4GXA9 1-379)
chain: MARVGPGRAGVSCQGRGRGRGGSGQRRPPTWEISDSDAEDSAGSEAAARARDPAGERRAAAEALRLLRPEQVLKRLAVCVDTAILEDAGADVLMEALEALGCECRIEPQRPARSLRWTRASPDPCPRSLPPEVWAAGEQELLLLLEPEEFLQGVATLTQISGPTHWVPWISPETTARPHLAVIGLDAYLWSRQHVSRGTQQPESPKVAGAEVAVSWPEVEEALVLLQLWANLDVLLVASWQELSRHVCAVTKALAQYPLKQYRESQAFSFCTAGRWAAGEPVARDGAGLQAAWRRQIRQFSRVSPAVADAVVTAFPSPRLLQQALEACSTERERMGLLADLPVPPSEGGRPRRVGPDLSRRICLFLTTANPDLLLDLGS
Take B3: in assay [1], the binding result is on record as “binds”.

B4: EME1(178-570) of the truncated complex MUS81(246-551)-EME1(178-570) (domain or fragment, UniProt Q96AY2 178-570)
chain: GQSSSLAVTKTNSDILPPQKKTKPSQKVQGRGSHGCRQQRQARQKESTLRRQERKNAALVTRMKAQRPEECLKHIIVVLDPVLLQMEGGGQLLGALQTMECRCVIEAQAVPCSVTWRRRAGPSEDREDWVEEPTVLVLLRAEAFVSMIDNGKQGSLDSTMKGKETLQGFVTDITAKTAGKALSLVIVDQEKCFSAQNPPRRGKQGANKQTKKQQQRQPEASIGSMVSRVDAEEALVDLQLHTEAQAQIVQSWKELADFTCAFTKAVAEAPFKKLRDETTFSFCLESDWAGGVKVDLAGRGLALVWRRQIQQLNRVSLEMASAVVNAYPSPQLLVQAYQQCFSDKERQNLLADIQVRRGEGVTSTSRRIGPELSRRIYLQMTTLQPHLSLDSAD
Take B4: the binding result in assay [3] and in assay [4] was “binds” each time.
